From patent publication US20180355061A1 come the findings set out here.

The chains behind the UniProt entries cited, without tags or fusion partners. Where a name states a change or a piece, a line headed by the entry shows the natural chain unless it says otherwise.
UniProt Q15116: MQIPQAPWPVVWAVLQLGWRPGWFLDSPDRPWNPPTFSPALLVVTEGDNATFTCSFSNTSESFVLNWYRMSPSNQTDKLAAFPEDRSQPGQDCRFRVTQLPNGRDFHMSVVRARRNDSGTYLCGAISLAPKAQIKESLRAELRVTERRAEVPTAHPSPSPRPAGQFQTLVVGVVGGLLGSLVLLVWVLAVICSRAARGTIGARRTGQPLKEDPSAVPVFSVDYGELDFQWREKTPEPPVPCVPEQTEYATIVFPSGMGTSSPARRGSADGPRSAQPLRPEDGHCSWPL

Experiment [1] has as its target human PD-1 expressed on cells (human) (UniProt Q15116). Put plainly: flow cytometry cell clustering of PD-L2-HEK cells with PD-1-HEK cells, % double positive events.
Experiment [2] has the same target. The experiment is described as follows: flow cytometry cell clustering of PD-L1-HEK cells with PD-1-HEK cells, % double positive events. For orientation: Flow cytometry measures light scatter and fluorescence of single cells or particles in a stream.

No constants are given. Whether binding was seen depends on the method and setting. Some binding calls cover weakened binding; strength is not graded here.

Consider “cynomolgus monkey PD-L2 on HEK cells (from UniProt A0A2K5U5Z4 20-273) (ligand)”, for which the binding result in experiment [1] is on record as “binds”. In the case of “cynomolgus monkey PD-L1 on HEK cells (from UniProt G7PSE7 19-290) (ligand)”, in experiment [2], the binding entry is on record as “binds”.
